Assay results as given in the supplement of paper PMC8728848.
This is one part of the list.

What was measured:
Assay in all cases: glycan array binding signal (z-score within array); higher = stronger binding
Details in all cases: glycan notation: IUPAC condensed, linker removed; mutation: D21K
Gal3S4S(b1-4)GlcNAc = target: Gal3S4S(b1-4)GlcNAc
Procedure, shortened: (§1)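 Arrays were curated from the Consortium for Functional Glycomics database, 3228 in total, and kept only where the protein sequence was available. Binding is expressed as a within-array Z-score. This score was averaged across arrays of the same protein sequence at different concentrations or buffers and across linkers, and negative values can be read as non-binding.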

Gal3S6S(b1-4)GlcNAc = target: Gal3S6S(b1-4)GlcNAc
Procedure, shortened: as §1

Gal3S6S(b1-4)GlcNAc6S = target: Gal3S6S(b1-4)GlcNAc6S
Procedure, shortened: as §1

Gal4S(b1-4)GlcNAc = target: Gal4S(b1-4)GlcNAc
Procedure, shortened: as §1

Gal4S6S(b1-4)GlcNAc = target: Gal4S6S(b1-4)GlcNAc
Procedure, shortened: as §1

Gal6P(b1-4)GlcNAc = target: Gal6P(b1-4)GlcNAc
Procedure, shortened: as §1

Gal6S(b1-3)GlcNAc = target: Gal6S(b1-3)GlcNAc
Procedure, shortened: as §1

Gal6S(b1-3)GlcNAc6S = target: Gal6S(b1-3)GlcNAc6S
Procedure, shortened: as §1

Gal6S(b1-4)Glc = target: Gal6S(b1-4)Glc
Procedure, shortened: as §1

Gal6S(b1-4)Glc6S = target: Gal6S(b1-4)Glc6S
Procedure, shortened: as §1

Gal6S(b1-4)GlcNAc = target: Gal6S(b1-4)GlcNAc
Procedure, shortened: as §1

Gal6S(b1-4)GlcNAc6S = target: Gal6S(b1-4)GlcNAc6S
Procedure, shortened: as §1

GalNAc(a1-3)Gal = target: GalNAc(a1-3)Gal
Procedure, shortened: as §1

GalNAc(a1-3)GalNAc = target: GalNAc(a1-3)GalNAc
Procedure, shortened: as §1

[1] = target: GalNAc(a1-3)GalNAc(b1-3)Gal(a1-4)Gal(b1-4)Glc
Procedure, shortened: as §1

[2] = target: GalNAc(a1-3)GalNAc(b1-3)Gal(a1-4)Gal(b1-4)GlcNAc
Procedure, shortened: as §1

GalNAc(b1-3)Gal = target: GalNAc(b1-3)Gal
Procedure, shortened: as §1

[3] = target: GalNAc(b1-3)Gal(a1-4)Gal(b1-4)GlcNAc
Procedure, shortened: as §1

[4] = target: GalNAc(b1-3)Gal(a1-4)Gal(b1-4)GlcNAc(b1-3)Gal(b1-4)Glc
Procedure, shortened: as §1

[5] = target: GalNAc(b1-3)Gal(a1-6)Gal(b1-4)Glc
Procedure, shortened: as §1

GalNAc(b1-3)GalNAc = target: GalNAc(b1-3)GalNAc
Procedure, shortened: as §1

GalNAc(b1-3)GlcNAc = target: GalNAc(b1-3)GlcNAc
Procedure, shortened: as §1

GalNAc(b1-4)Gal(b1-4)Glc = target: GalNAc(b1-4)Gal(b1-4)Glc
Procedure, shortened: as §1

GalNAc(b1-4)GlcNAc = target: GalNAc(b1-4)GlcNAc
Procedure, shortened: as §1

[6] = target: GalNAc(b1-4)GlcNAc(b1-2)Man
Procedure, shortened: as §1

[7] = target: GalNAc(b1-4)GlcNAc(b1-2)Man(a1-3)[GalNAc(b1-4)GlcNAc(b1-2)Man(a1-6)]Man(b1-4)GlcNAc(b1-4)GlcNAc
Procedure, shortened: as §1

[8] = target: GalNAc(b1-4)GlcNAc(b1-3)GalNAc(b1-4)GlcNAc
Procedure, shortened: as §1

GalNAc(b1-4)GlcNAc6S = target: GalNAc(b1-4)GlcNAc6S
Procedure, shortened: as §1

GalNAc(b1-6)GalNAc = target: GalNAc(b1-6)GalNAc
Procedure, shortened: as §1

GalNAc3S(b1-4)GlcNAc = target: GalNAc3S(b1-4)GlcNAc
Procedure, shortened: as §1

GalNAc3S(b1-4)GlcNAc3S = target: GalNAc3S(b1-4)GlcNAc3S
Procedure, shortened: as §1

[9] = target: GalNAc3S(b1-4)[Fuc(a1-3)]GlcNAc
Procedure, shortened: as §1

GalNAc4S6S(b1-4)GlcNAc = target: GalNAc4S6S(b1-4)GlcNAc
Procedure, shortened: as §1

GalNAc6S(b1-4)GlcNAc = target: GalNAc6S(b1-4)GlcNAc
Procedure, shortened: as §1

Glc(a1-4)Glc = target: Glc(a1-4)Glc
Procedure, shortened: as §1

[10] = target: Glc(a1-4)Glc(a1-4)Glc(a1-4)Glc
Procedure, shortened: as §1

Glc(a1-6)Glc(a1-6)Glc = target: Glc(a1-6)Glc(a1-6)Glc
Procedure, shortened: as §1

[11] = target: Glc(a1-6)Glc(a1-6)Glc(a1-6)Glc
Procedure, shortened: as §1

Glc(b1-4)Glc = target: Glc(b1-4)Glc
Procedure, shortened: as §1

Glc(b1-6)Glc = target: Glc(b1-6)Glc
Procedure, shortened: as §1

GlcA(b1-3)Gal = target: GlcA(b1-3)Gal
Procedure, shortened: as §1

GlcA(b1-3)GlcNAc = target: GlcA(b1-3)GlcNAc
Procedure, shortened: as §1

GlcA(b1-6)Gal = target: GlcA(b1-6)Gal
Procedure, shortened: as §1

[12] = target: GlcA3S(b1-3)Gal(b1-4)GlcNAc(b1-2)Man
Procedure, shortened: as §1

[13] = target: GlcA3S(b1-3)Gal(b1-4)GlcNAc(b1-3)Gal(b1-4)Glc
Procedure, shortened: as §1

[14] = target: GlcNAc(a1-3)Gal(b1-4)GlcNAc
Procedure, shortened: as §1

[15] = target: GlcNAc(a1-4)Gal(b1-3)GlcNAc
Procedure, shortened: as §1

[16] = target: GlcNAc(a1-4)Gal(b1-4)GalNAc
Procedure, shortened: as §1

[17] = target: GlcNAc(a1-4)Gal(b1-4)GlcNAc
Procedure, shortened: as §1

[18] = target: GlcNAc(a1-4)Gal(b1-4)GlcNAc(b1-3)Gal(b1-4)Glc
Procedure, shortened: as §1

[19] = target: GlcNAc(a1-4)Gal(b1-4)GlcNAc(b1-3)Gal(b1-4)GlcNAc
Procedure, shortened: as §1

[20] = target: GlcNAc(a1-4)Gal(b1-4)GlcNAc(b1-3)Gal(b1-4)GlcNAc(b1-3)Gal(b1-4)GlcNAc
Procedure, shortened: as §1

[21] = target: GlcNAc(a1-4)Gal(b1-4)GlcNAc(b1-3)Gal(b1-4)[Fuc(a1-3)]GlcNAc(b1-3)Gal(b1-4)[Fuc(a1-3)]GlcNAc
Procedure, shortened: as §1

With KILRGVCKKIMRTFLRRISKKILTGKK [C7A (Sus scrofa)] the “glycan array binding signal (z-score)” value (Gal3S4S(b1-4)GlcNAc) was 1.1, the “glycan array binding signal (z-score)” value (Gal3S6S(b1-4)GlcNAc) was 2.5 and the “glycan array binding signal (z-score)” value (Gal3S6S(b1-4)GlcNAc6S) was 2.04. The “glycan array binding signal (z-score)” value (Gal4S(b1-4)GlcNAc) was 0.164, the “glycan array binding signal (z-score)” value (Gal4S6S(b1-4)GlcNAc) was -0.533 and the “glycan array binding signal (z-score)” value (Gal6P(b1-4)GlcNAc) was -1.61. For the same binder, the “glycan array binding signal (z-score)” value (Gal6S(b1-3)GlcNAc) was 1.07, the “glycan array binding signal (z-score)” value (Gal6S(b1-3)GlcNAc6S) was 2.66 and the “glycan array binding signal (z-score)” value (Gal6S(b1-4)Glc) was -0.286. The “glycan array binding signal (z-score)” value (Gal6S(b1-4)Glc6S) was -0.552, the “glycan array binding signal (z-score)” value (Gal6S(b1-4)GlcNAc) was 0.044 and the “glycan array binding signal (z-score)” value (Gal6S(b1-4)GlcNAc6S) was 1.78. For the same binder, the “glycan array binding signal (z-score)” value (GalNAc(a1-3)Gal) was -0.414, the “glycan array binding signal (z-score)” value (GalNAc(a1-3)GalNAc) was -0.728 and the “glycan array binding signal (z-score)” value [1] was -1.07. The “glycan array binding signal (z-score)” value [2] was 0.64, the “glycan array binding signal (z-score)” value (GalNAc(b1-3)Gal) was 0.294 and the “glycan array binding signal (z-score)” value [3] was -0.726. The “glycan array binding signal (z-score)” value [4] was 1.58, the “glycan array binding signal (z-score)” value [5] was -1.14 and the “glycan array binding signal (z-score)” value (GalNAc(b1-3)GalNAc) was -0.108. For the same binder, the “glycan array binding signal (z-score)” value (GalNAc(b1-3)GlcNAc) was -0.947, the “glycan array binding signal (z-score)” value (GalNAc(b1-4)Gal(b1-4)Glc) was 0.214 and the “glycan array binding signal (z-score)” value (GalNAc(b1-4)GlcNAc) was -1.06. For the same binder, the “glycan array binding signal (z-score)” value [6] was -0.838, the “glycan array binding signal (z-score)” value [7] was 0.958 and the “glycan array binding signal (z-score)” value [8] was -0.269. The “glycan array binding signal (z-score)” value (GalNAc(b1-4)GlcNAc6S) was 2.21, the “glycan array binding signal (z-score)” value (GalNAc(b1-6)GalNAc) was -1.26 and the “glycan array binding signal (z-score)” value (GalNAc3S(b1-4)GlcNAc) was 0.857. The “glycan array binding signal (z-score)” value (GalNAc3S(b1-4)GlcNAc3S) was 1.14, the “glycan array binding signal (z-score)” value [9] was -0.571 and the “glycan array binding signal (z-score)” value (GalNAc4S6S(b1-4)GlcNAc) was 2.43. For the same binder, the “glycan array binding signal (z-score)” value (GalNAc6S(b1-4)GlcNAc) was 0.92, the “glycan array binding signal (z-score)” value (Glc(a1-4)Glc) was 0.362 and the “glycan array binding signal (z-score)” value [10] was 0.113. The “glycan array binding signal (z-score)” value (Glc(a1-6)Glc(a1-6)Glc) was -0.06, the “glycan array binding signal (z-score)” value [11] was 1.13 and the “glycan array binding signal (z-score)” value (Glc(b1-4)Glc) was -0.305. For the same binder, the “glycan array binding signal (z-score)” value (Glc(b1-6)Glc) was -0.45, the “glycan array binding signal (z-score)” value (GlcA(b1-3)Gal) was -0.138 and the “glycan array binding signal (z-score)” value (GlcA(b1-3)GlcNAc) was 0.609. For the same binder, the “glycan array binding signal (z-score)” value (GlcA(b1-6)Gal) was -1.53, the “glycan array binding signal (z-score)” value [12] was 1.34 and the “glycan array binding signal (z-score)” value [13] was 0.129. The “glycan array binding signal (z-score)” value [14] was -0.725, the “glycan array binding signal (z-score)” value [15] was -1.74 and the “glycan array binding signal (z-score)” value [16] was -1.08. The “glycan array binding signal (z-score)” value [17] was -1.22, the “glycan array binding signal (z-score)” value [18] was -0.555 and the “glycan array binding signal (z-score)” value [19] was -0.66. For the same binder, the “glycan array binding signal (z-score)” value [20] was -0.996 and the “glycan array binding signal (z-score)” value [21] was -1.42.
